From patent publication US7115379
These are yes or no findings as the source states them, for the method shown.

Legend:
Assay in all cases: binding assays with known chemokine receptors
[1] = molecular target: T1, chemokine receptor CCR 1 (UniProt P32246)
T1 sequence (looked up): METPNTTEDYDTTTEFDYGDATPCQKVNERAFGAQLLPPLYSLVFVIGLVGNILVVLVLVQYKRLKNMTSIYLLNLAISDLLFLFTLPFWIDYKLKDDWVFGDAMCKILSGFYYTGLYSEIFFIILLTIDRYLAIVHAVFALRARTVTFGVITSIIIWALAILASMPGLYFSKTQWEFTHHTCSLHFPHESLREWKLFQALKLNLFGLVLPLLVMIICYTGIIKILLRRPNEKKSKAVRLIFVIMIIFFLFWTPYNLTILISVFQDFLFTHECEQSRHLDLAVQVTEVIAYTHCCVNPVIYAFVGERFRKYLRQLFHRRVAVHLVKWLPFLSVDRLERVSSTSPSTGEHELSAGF

[2] = molecular target: T2, chemokine receptor CCR 3 (UniProt P51677)
T2 sequence (looked up): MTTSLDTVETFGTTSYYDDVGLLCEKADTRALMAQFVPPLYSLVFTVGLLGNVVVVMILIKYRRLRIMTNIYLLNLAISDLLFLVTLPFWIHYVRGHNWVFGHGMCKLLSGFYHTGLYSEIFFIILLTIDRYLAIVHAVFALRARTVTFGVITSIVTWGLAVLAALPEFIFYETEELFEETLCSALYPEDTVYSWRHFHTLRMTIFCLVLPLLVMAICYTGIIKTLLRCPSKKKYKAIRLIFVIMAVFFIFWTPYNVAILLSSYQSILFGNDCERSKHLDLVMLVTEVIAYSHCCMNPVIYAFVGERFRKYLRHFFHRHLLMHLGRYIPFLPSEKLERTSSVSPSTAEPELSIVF

[3] = molecular target: T3, chemokine receptor CCR 4 (UniProt P51679)
T3 sequence (looked up): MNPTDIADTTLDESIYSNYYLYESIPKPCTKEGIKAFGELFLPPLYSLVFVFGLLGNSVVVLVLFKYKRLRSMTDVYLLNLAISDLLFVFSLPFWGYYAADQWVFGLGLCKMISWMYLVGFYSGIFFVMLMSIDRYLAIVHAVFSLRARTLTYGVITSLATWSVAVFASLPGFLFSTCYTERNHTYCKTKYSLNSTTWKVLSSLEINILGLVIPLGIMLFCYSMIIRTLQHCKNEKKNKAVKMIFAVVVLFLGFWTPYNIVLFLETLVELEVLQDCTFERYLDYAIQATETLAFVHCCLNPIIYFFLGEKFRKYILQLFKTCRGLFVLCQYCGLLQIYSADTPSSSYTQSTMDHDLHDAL

[4] = molecular target: T4, Duffy antigen receptor (UniProt Q16570)
T4 sequence (looked up): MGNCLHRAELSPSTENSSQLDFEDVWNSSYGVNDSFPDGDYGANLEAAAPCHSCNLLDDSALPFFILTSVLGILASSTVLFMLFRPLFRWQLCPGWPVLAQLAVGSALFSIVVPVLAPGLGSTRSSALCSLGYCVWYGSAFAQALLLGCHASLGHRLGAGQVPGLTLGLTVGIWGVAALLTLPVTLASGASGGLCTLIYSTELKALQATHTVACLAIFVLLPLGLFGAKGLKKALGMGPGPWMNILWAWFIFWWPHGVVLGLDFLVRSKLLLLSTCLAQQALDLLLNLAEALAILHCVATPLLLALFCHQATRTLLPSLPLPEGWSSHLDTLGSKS

Measured: binding

CX3Ckine (ligand)
no binding: all assays above
